Laboratory results reported in the supplement of paper PMC10849652.
The list shows a part of the results.

The chains behind the UniProt entries cited, without tags or fusion partners. Where a name states a change or a piece, a line headed by the entry shows the natural chain unless it says otherwise.
UniProt P06732: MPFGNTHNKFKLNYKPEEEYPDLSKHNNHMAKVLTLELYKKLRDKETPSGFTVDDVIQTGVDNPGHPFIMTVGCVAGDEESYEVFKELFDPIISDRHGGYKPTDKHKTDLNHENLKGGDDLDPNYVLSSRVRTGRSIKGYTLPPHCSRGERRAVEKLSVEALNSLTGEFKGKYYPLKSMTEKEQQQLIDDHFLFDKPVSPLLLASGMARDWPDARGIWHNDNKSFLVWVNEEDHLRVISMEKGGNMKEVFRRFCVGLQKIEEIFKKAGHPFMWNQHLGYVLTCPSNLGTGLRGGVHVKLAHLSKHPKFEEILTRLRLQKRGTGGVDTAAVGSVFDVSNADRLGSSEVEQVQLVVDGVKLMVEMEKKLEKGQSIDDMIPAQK
UniProt Q9BT09: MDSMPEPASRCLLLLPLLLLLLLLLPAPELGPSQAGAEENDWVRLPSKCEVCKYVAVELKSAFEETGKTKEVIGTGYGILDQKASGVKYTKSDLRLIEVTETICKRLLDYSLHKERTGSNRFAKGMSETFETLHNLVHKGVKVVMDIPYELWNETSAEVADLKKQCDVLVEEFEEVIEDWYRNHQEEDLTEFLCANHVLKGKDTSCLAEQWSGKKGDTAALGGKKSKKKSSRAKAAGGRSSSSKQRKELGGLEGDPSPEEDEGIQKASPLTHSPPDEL
UniProt Q9Y2B0: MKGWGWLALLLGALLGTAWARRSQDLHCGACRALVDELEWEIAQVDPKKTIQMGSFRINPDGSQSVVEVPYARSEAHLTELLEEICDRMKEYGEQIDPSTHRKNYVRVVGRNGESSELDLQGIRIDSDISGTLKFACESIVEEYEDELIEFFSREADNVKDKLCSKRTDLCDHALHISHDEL
UniProt Q9BQ75: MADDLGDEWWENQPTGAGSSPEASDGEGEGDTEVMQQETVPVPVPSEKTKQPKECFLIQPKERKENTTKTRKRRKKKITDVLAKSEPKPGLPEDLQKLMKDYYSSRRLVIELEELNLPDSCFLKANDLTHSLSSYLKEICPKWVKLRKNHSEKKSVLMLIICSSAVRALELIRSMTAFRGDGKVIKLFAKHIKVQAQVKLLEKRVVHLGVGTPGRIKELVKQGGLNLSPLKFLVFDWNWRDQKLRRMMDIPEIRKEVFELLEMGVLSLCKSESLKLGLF
UniProt Q8N5K1: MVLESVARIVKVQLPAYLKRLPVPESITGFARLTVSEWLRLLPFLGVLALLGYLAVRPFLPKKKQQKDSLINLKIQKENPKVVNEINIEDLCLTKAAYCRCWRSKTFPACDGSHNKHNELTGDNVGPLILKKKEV
UniProt Q2KHT3: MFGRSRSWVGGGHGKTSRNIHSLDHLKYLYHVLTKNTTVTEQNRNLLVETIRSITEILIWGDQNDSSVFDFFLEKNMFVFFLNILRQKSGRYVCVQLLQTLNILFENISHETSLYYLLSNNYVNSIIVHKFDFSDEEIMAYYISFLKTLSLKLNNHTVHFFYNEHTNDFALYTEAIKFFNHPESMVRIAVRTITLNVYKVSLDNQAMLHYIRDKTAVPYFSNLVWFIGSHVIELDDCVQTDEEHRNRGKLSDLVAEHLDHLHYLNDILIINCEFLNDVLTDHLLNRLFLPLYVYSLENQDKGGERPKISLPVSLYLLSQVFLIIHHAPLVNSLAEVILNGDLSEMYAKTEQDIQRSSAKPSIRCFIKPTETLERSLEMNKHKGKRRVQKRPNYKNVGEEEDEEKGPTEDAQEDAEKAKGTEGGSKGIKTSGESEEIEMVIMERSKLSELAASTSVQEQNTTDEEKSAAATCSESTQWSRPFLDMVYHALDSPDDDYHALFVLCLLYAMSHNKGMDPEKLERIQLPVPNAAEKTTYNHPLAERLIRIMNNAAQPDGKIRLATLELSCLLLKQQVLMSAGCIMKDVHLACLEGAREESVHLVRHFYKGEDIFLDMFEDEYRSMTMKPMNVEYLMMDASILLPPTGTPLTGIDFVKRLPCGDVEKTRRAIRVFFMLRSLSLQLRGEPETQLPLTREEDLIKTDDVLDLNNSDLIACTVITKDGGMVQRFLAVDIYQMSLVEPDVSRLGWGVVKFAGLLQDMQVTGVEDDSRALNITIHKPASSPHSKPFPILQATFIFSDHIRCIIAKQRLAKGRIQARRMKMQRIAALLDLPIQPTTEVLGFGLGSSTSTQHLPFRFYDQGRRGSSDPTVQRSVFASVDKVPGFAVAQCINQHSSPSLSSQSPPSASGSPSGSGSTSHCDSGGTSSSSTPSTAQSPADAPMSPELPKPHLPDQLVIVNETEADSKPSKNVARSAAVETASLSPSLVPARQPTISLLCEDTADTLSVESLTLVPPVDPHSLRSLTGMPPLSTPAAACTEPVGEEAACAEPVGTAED
UniProt Q9Y2R0: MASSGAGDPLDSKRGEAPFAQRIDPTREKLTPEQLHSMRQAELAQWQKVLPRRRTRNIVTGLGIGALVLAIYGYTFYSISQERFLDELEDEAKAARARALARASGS
UniProt Q96FZ7: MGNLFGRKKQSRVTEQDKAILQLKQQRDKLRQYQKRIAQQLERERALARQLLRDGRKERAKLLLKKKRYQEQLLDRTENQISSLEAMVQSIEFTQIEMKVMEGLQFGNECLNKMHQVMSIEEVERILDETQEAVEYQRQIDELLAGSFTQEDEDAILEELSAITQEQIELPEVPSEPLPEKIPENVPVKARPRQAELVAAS
UniProt O76071: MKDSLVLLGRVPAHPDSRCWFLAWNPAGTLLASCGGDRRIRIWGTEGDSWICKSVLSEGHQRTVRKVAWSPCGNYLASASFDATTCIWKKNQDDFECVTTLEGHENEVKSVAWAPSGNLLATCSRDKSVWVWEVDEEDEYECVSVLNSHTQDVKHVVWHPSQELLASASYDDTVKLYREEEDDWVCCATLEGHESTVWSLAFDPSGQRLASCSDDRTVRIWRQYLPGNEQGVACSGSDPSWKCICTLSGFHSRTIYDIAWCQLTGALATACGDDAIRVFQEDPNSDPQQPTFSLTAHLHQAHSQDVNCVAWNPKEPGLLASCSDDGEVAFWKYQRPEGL
UniProt Q9NX76: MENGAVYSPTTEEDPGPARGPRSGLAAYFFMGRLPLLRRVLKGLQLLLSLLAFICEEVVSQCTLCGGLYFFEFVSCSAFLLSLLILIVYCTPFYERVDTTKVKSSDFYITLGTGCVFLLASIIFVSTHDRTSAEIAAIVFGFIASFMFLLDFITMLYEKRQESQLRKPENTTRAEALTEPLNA
UniProt Q9H5X1: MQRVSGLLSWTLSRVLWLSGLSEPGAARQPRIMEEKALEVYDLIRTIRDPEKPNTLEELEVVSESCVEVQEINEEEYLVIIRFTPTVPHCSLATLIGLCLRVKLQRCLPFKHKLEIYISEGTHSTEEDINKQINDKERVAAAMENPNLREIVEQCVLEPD
UniProt Q14011: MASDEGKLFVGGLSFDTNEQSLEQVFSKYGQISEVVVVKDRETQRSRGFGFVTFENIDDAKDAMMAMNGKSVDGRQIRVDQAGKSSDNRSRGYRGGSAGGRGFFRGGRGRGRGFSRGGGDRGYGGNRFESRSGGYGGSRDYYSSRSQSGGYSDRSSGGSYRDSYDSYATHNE
UniProt Q9H9A5, whole entry, looked up: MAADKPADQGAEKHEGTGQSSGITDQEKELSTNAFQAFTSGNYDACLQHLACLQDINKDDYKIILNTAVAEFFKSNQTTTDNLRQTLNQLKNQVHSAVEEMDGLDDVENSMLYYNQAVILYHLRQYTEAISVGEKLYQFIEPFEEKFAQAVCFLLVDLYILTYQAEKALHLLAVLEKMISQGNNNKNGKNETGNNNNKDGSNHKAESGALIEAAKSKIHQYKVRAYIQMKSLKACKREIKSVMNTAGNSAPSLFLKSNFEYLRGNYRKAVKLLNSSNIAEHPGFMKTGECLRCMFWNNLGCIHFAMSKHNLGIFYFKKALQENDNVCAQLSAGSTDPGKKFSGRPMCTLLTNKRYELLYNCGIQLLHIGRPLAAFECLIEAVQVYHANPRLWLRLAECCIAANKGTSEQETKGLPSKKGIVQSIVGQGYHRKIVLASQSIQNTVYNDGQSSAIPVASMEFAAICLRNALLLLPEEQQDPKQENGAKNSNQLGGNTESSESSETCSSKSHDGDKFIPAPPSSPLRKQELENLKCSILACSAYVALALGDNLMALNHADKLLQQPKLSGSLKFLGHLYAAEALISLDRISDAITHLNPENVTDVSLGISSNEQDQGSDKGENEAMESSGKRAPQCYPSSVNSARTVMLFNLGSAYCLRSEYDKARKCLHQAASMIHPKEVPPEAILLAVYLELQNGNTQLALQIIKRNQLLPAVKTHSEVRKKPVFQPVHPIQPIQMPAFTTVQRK
UniProt Q9UFF9, whole entry, looked up: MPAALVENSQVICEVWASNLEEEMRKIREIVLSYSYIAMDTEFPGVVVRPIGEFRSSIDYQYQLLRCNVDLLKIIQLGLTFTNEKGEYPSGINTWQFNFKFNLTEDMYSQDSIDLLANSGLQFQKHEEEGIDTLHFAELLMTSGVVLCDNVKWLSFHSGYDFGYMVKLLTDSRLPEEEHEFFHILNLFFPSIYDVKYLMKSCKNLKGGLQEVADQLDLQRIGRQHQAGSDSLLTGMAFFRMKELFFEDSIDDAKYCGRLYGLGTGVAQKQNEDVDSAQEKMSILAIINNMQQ

Assays:
Test in all cases: log2 fold change, soluble protein after heating vs DMSO (PISA); higher = thermal stabilisation; K562 cells, 10 uM, 30 min; active = over 0.2 and 3.5 SD of the protein, either way, in both replicates (recomputed)
[1] = compound: CC[C@@H]1C(=O)N(C)c2cnc(Nc3ccc(C(=O)NC4CCN(C)CC4)cc3OC)nc2N1C1CCCC1
Procedure, shortened: (§1)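 Soluble protein was defined as the supernatant after 21,000xg for 90 min. It came from K562 cells at 2×10^6 cells/mL given 10 μM compound for 30 min, heated in aliquots for 3 min across 48°C-58°C, pooled, and extracted in PBS with 0.5% NP-40 at 4°C, and was quantified by TMTpro 16plex LC-MS/MS with equalised channel sums. Thermal stability against control samples, from duplicates, is reported as log2 fold change.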

volasertib = compound: CC[C@@H]1C(=O)N(C)c2cnc(Nc3ccc(C(=O)N[C@H]4CC[C@H](N5CCN(CC6CC6)CC5)CC4)cc3OC)nc2N1C(C)C [volasertib]
Procedure, shortened: as §1

[2] = compound: CC[C@H](C)N1C=C(C2=C(C=C(C=C21)C3=CN=C(C=C3)N4CCNCC4)C(=O)NCC5=C(C=C(NC5=O)C)C)C
Procedure, shortened: as §1

epoxomicin = compound: CC[C@H](C)[C@@H](C(=O)N[C@@H]([C@@H](C)O)C(=O)N[C@@H](CC(C)C)C(=O)[C@]1(CO1)C)NC(=O)[C@H]([C@@H](C)CC)N(C)C(=O)C [epoxomicin]
Procedure, shortened: as §1

[3] = compound: CCn1c(C(=O)N(C2CC2)C2CC2)cc2c3c(ncn3C)c(Nc3cc(C)n(C)n3)nc21
Procedure, shortened: as §1

[4] = compound: CCn1cc(-c2ccnc3[nH]c(-c4cccc(CN(C)C)c4)cc23)c(-c2ccc(NC(=O)N(C)C)cc2)n1
Procedure, shortened: as §1

[5] = compound: CN(C)CC(=O)Nc1ccc2[nH]c(=O)c3ccccc3c2c1
Procedure, shortened: as §1

rosiglitazone = compound: CN(CCOC1=CC=C(C=C1)C[C@H]2C(=O)NC(=O)S2)C3=CC=CC=N3 (racemic) [rosiglitazone]
Procedure, shortened: as §1

[6] = compound: CN1C2=C(C3=C1C(=O)N(N=C3)CC4=CC(=CC=C4)N)SC(=C2)S(=O)C
Procedure, shortened: as §1

[7] = compound: CN1CCC(CNc2ccc3ncc(-c4cccc(OC(F)(F)F)c4)n3n2)CC1
Procedure, shortened: as §1

saracatinib = compound: CN1CCN(CCOc2cc(OC3CCOCC3)c3c(Nc4c(Cl)ccc5c4OCO5)ncnc3c2)CC1 [saracatinib]
Procedure, shortened: as §1

sotrastaurin = compound: CN1CCN(c2nc(C3=C(c4c[nH]c5ccccc45)C(=O)NC3=O)c3ccccc3n2)CC1 [sotrastaurin]
Procedure, shortened: as §1

alvocidib = compound: CN1CC[C@H](c2c(O)cc(O)c3c(=O)cc(-c4ccccc4Cl)oc23)[C@H](O)C1 [alvocidib]
Procedure, shortened: as §1

Tubastatin A = compound: CN1CCc2c(c3ccccc3n2Cc2ccc(C(=O)NO)cc2)C1 [Tubastatin A]
Procedure, shortened: as §1

[8] = compound: CNC(=O)C1=CC=CC=C1NC2=NC(=NC=C2Cl)NC3=C(C=C(C=C3)N4CCOCC4)OC
Procedure, shortened: as §1

defactinib = compound: CNC(=O)c1ccc(Nc2ncc(C(F)(F)F)c(NCc3nccnc3N(C)S(C)(=O)=O)n2)cc1 [defactinib]
Procedure, shortened: as §1

rucaparib = compound: CNCc1ccc(-c2[nH]c3cc(F)cc4c3c2CCNC4=O)cc1 [rucaparib]
Procedure, shortened: as §1

[9] = compound: CNc1nc(-c2ccc3c(N)n[nH]c3c2)cc(N2C[C@@H](C(=O)NC3CCCCC3)CC[C@H]2C)n1
Procedure, shortened: as §1

encorafenib = compound: COC(=O)N[C@@H](C)CNc1nccc(-c2cn(C(C)C)nc2-c2cc(Cl)cc(NS(C)(=O)=O)c2F)n1 [encorafenib]
Procedure, shortened: as §1

[10] = compound: COC(=O)[C@H](CCSC)NC(=O)C1=C(C=C(C=C1)NC[C@H](CS)N)C2=CC=CC=C2
Procedure, shortened: as §1

Measured: log2 fold change

CKM (UniProt P06732)
inactive: [1] -0.004 | volasertib 0.164 | [2] -0.004 | epoxomicin 0.035 | [3] -0.029 | [4] -0.195 | [5] 0.013 | rosiglitazone 0.042 | [6] -0.049 | [7] -0.004 | saracatinib -0.064 | sotrastaurin -0.106 | alvocidib -0.099 | Tubastatin A -0.043 | [8] -0.003 | defactinib -0.017 | rucaparib 0.003 | [9] 0.113 | encorafenib 0.019 | [10] 0.029

CNPY3 (UniProt Q9BT09)
inactive: [1] 0.035 | volasertib 0.055 | [2] -0.026 | epoxomicin -0.022 | [3] -0.019 | [4] 0.011 | [5] 0.013 | rosiglitazone -0.021 | [6] -0.018 | [7] -0.016 | saracatinib 0.013 | sotrastaurin 0.092 | alvocidib -0.084 | Tubastatin A -0.012 | [8] 0.055 | defactinib 0.008 | rucaparib -0.046 | [9] -0.019 | encorafenib -0.017 | [10] 0.075

CKMT1A (UniProt P12532)
inactive: [1] 0.038 | volasertib 0.056 | [2] -0.022 | epoxomicin 0.013 | [3] -0.035 | [4] 0.018 | [5] 0.004 | rosiglitazone -0.017 | [6] -0.03 | [7] -0.023 | saracatinib 0.029 | sotrastaurin 0.05 | alvocidib 0.026 | Tubastatin A -0.033 | [8] -0.019 | defactinib -0.026 | rucaparib -0.011 | [9] -0.058 | encorafenib -0.02 | [10] 0.019

CNPY2 (UniProt Q9Y2B0)
inactive: [1] -0.032 | volasertib -0.027 | [2] -0.044 | epoxomicin -0.003 | [3] 0.027 | [4] 0.001 | [5] -0.055 | rosiglitazone 0.003 | [6] -0.014 | [7] 0.058 | saracatinib -0.009 | sotrastaurin 0.069 | alvocidib -0.092 | Tubastatin A -0.035 | [8] 0.001 | defactinib 0.05 | rucaparib -0.037 | [9] -0.058 | encorafenib -0.001 | [10] -0.003

CMSS1 (UniProt Q9BQ75)
inactive: [1] 0.158 | volasertib -0.137 | [2] -0.023 | epoxomicin -0.116 | [3] -0.099 | [4] 0.111 | [5] 0 | rosiglitazone -0.054 | [6] 0.032 | [7] 0.056 | saracatinib -0.076 | sotrastaurin -0.123 | alvocidib 0.156 | Tubastatin A 0.098 | [8] 0.047 | defactinib 0.322 | rucaparib 0.138 | [9] -0.129 | encorafenib 0.228 | [10] -0.038

CNOT6L (UniProt Q96LI5)
inactive: [1] -0.244 | volasertib -0.064 | [2] -0.059 | epoxomicin -0.019 | [3] -0.093 | [4] 0.019 | [5] -0.065 | rosiglitazone 0.18 | [6] 0.061 | [7] -0.075 | saracatinib -0.033 | sotrastaurin -0.136 | alvocidib 0.03 | Tubastatin A 0.073 | [8] 0.009 | defactinib -0.05 | rucaparib -0.069 | [9] -0.049 | encorafenib -0.084 | [10] 0.027

CISD2 (UniProt Q8N5K1)
inactive: [1] 0.034 | volasertib 0.052 | [2] -0.043 | epoxomicin -0.035 | [3] 0.001 | [4] -0.031 | [5] -0.025 | rosiglitazone -0.001 | [6] -0.042 | [7] 0.121 | saracatinib 0.027 | sotrastaurin 0.014 | alvocidib -0.016 | Tubastatin A -0.026 | [8] -0.025 | defactinib -0.018 | rucaparib -0.029 | [9] -0.049 | encorafenib -0.032 | [10] 0.055

CLEC16A (UniProt Q2KHT3)
inactive: [1] 0.023 | volasertib 0.029 | [2] -0.016 | epoxomicin 0 | [3] -0.029 | [4] 0.042 | [5] 0 | rosiglitazone 0.023 | [6] 0.032 | [7] -0.002 | saracatinib -0.007 | sotrastaurin 0.012 | alvocidib 0.034 | Tubastatin A 0.054 | [8] -0.012 | defactinib -0.006 | rucaparib -0.111 | [9] 0.013 | encorafenib 0.001 | [10] 0.009

Fetched one by one from above, 2 records:
CISD2 (UniProt Q8N5K1)
inactive: [1] 0.034 | volasertib 0.052 | [2] -0.043 | epoxomicin -0.035 | [3] 0.001 | [4] -0.031 | [5] -0.025 | rosiglitazone -0.001 | [6] -0.042 | [7] 0.121 | saracatinib 0.027 | sotrastaurin 0.014 | alvocidib -0.016 | Tubastatin A -0.026 | [8] -0.025 | defactinib -0.018 | rucaparib -0.029 | [9] -0.049 | encorafenib -0.032 | [10] 0.055

CNPY2 (UniProt Q9Y2B0)
inactive: [1] -0.032 | volasertib -0.027 | [2] -0.044 | epoxomicin -0.003 | [3] 0.027 | [4] 0.001 | [5] -0.055 | rosiglitazone 0.003 | [6] -0.014 | [7] 0.058 | saracatinib -0.009 | sotrastaurin 0.069 | alvocidib -0.092 | Tubastatin A -0.035 | [8] 0.001 | defactinib 0.05 | rucaparib -0.037 | [9] -0.058 | encorafenib -0.001 | [10] -0.003

(next part)

COA3 (UniProt Q9Y2R0)
inactive: [1] 0.031 | volasertib 0.085 | [2] -0.074 | epoxomicin -0.041 | [3] 0.029 | [4] -0.016 | [5] -0.004 | rosiglitazone -0.023 | [6] -0.02 | [7] 0 | saracatinib 0.05 | sotrastaurin 0.02 | alvocidib 0.049 | Tubastatin A 0.012 | [8] -0.011 | defactinib 0.004 | rucaparib -0.01 | [9] -0.038 | encorafenib -0.022 | [10] 0.007

CHMP6 (UniProt Q96FZ7)
inactive: [1] 0.022 | volasertib -0.018 | [2] 0.037 | epoxomicin 0.004 | [3] 0 | [4] -0.014 | [5] 0.015 | rosiglitazone -0.015 | [6] 0.013 | [7] 0.071 | saracatinib 0.068 | sotrastaurin -0.015 | alvocidib -0.039 | Tubastatin A -0.003 | [8] 0.023 | defactinib 0.005 | rucaparib -0.069 | [9] -0.023 | encorafenib -0.031 | [10] 0.027

CIAO1 (UniProt O76071)
inactive: [1] -0.112 | volasertib 0.149 | [2] -0.038 | epoxomicin 0.075 | [3] 0.01 | [4] -0.017 | [5] 0.061 | rosiglitazone 0.027 | [6] -0.082 | [7] -0.119 | saracatinib 0.003 | sotrastaurin 0.034 | alvocidib -0.068 | Tubastatin A -0.003 | [8] -0.057 | defactinib 0.018 | rucaparib -0.075 | [9] -0.023 | encorafenib -0.031 | [10] 0.016

CMTM6 (UniProt Q9NX76)
inactive: [1] -0.009 | volasertib 0.035 | [2] -0.146 | epoxomicin 0.044 | [3] 0.007 | [5] 0.052 | rosiglitazone -0.01 | [6] -0.056 | saracatinib 0.052 | sotrastaurin -0.043 | alvocidib 0.01 | Tubastatin A -0.086 | [8] -0.024 | defactinib -0.112 | rucaparib 0.189 | [9] -0.023 | encorafenib -0.1 | [10] -0.116

CIAO2A (UniProt Q9H5X1)
inactive: [1] -0.062 | volasertib 0 | [2] -0.017 | epoxomicin 0.005 | [3] -0.061 | [4] 0.032 | [5] 0.067 | rosiglitazone 0.056 | [6] -0.038 | [7] -0.131 | saracatinib 0.016 | sotrastaurin 0.019 | alvocidib -0.068 | Tubastatin A -0.015 | [8] -0.041 | defactinib -0.034 | rucaparib -0.043 | [9] -0.066 | encorafenib -0.021 | [10] -0.015

CIRBP isoform 2 (UniProt Q14011)
inactive: [1] 0.152 | volasertib 0.196 | [2] 0.012 | epoxomicin -0.111 | [3] 0.03 | [4] 0.198 | [5] -0.031 | rosiglitazone -0.093 | [6] 0.1 | [7] 0.254 | saracatinib -0.048 | sotrastaurin 0.112 | alvocidib 0.155 | Tubastatin A 0.003 | [8] 0.001 | defactinib 0.245 | rucaparib 0.212 | [9] 0.016 | encorafenib 0.148 | [10] 0.002

CNOT10 isoform 6 (UniProt Q9H9A5)
inactive: [1] -0.012 | volasertib -0.095 | [2] 0.083 | epoxomicin -0.007 | [3] -0.071 | [4] 0.019 | [5] 0.04 | rosiglitazone 0.002 | [6] 0.026 | [7] -0.074 | saracatinib 0.04 | sotrastaurin -0.065 | alvocidib 0.028 | Tubastatin A 0.007 | [8] 0.013 | defactinib -0.03 | rucaparib 0.053 | [9] 0.001 | encorafenib 0.07 | [10] -0.013

CNOT8 (UniProt Q9UFF9)
inactive: [1] -0.055 | volasertib -0.057 | [2] 0.051 | epoxomicin 0.095 | [3] 0.044 | [5] -0.15 | rosiglitazone -0.06 | [6] -0.003 | saracatinib 0.004 | sotrastaurin -0.024 | alvocidib 0.072 | Tubastatin A -0.001 | [8] -0.031 | defactinib -0.098 | rucaparib 0.075 | [9] 0.01 | encorafenib 0.061 | [10] 0.088
